# According to the supplement of paper PMC8728848:
# The list shows a part of the results.
# B1: GS13599A-bth-520-23-520 (Bacteroides thetaiotaomicron) (protein)
# chain: SEDTMDRINKDHDHTTSVASRFILADVITSTAFSNASGDINTYASSYIEYEVGVDNQLYYAEVRENEPSSSSTFNNSWNGIYSSLKNARIIIDQCGEGGRDHGNDVTRGMAEVMAAYNCALIADFFGDAPCSQAALVDEKGSPVYMTPKMDTQQEIYTQIISYLDDAIANLQKEDLADVTEQDFLYAGDADKWLKFAYGLKARYTMRLINRSSNKSADYEKVLDYVSKSFTSADDQAAFDIYDSNNINPFYGFYNSRAGFGASTSLGTKLLAYNDPRANRAFFTPIVDKKRSQVAANDPSLVPAPNGSPDQSTSKYGISAFVYAKTAPTLLMSYHELMFLKAEALCRLNRDAEDALKEAVVAGLLNAENSISIAIKELGSGLNTNSSEVITETSAGKYFDDVVKAKYAANPLQETMIQKYLAMWGASGEATETYNDFRRMKGLNENFITLTNPNNSSKFPLRYPYGNSDTAANPEVKAAYGNGDYVYSEPVWWAGGSR
# Assays:
# Assay in all cases: glycan array binding signal (z-score within array); higher = stronger binding
# Settings in all cases: glycan notation: IUPAC condensed, linker removed
# [1] = molecular target: Man(a1-3)[Man(a1-6)]Man(a1-6)[Man(a1-3)]Man
# Summary of the method: (§1)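 Negative Z-scores can be read as non-binding. The Z-score is calculated within each array and then averaged across arrays of one protein sequence at different concentrations or buffers and across linkers. Arrays, 3228 in all, were curated from the Consortium for Functional Glycomics database and kept only where the protein sequence was available.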
# [2] = molecular target: Man(a1-3)[Man(a1-6)]Man(a1-6)[Man(a1-3)]Man(b1-4)GlcNAc(b1-4)GlcNAc
# Summary of the method: as §1
# [3] = molecular target: Man(a1-3)[Man(a1-6)]Man(b1-4)GlcNAc(b1-4)GlcNAc
# Summary of the method: as §1
# [4] = molecular target: Man(a1-3)[Man(a1-6)]Man(b1-4)GlcNAc(b1-4)[Fuc(a1-6)]GlcNAc
# Summary of the method: as §1
# [5] = molecular target: Man(a1-6)Man
# Summary of the method: as §1
# [6] = molecular target: Man(b1-4)GlcNAc
# Summary of the method: as §1
# [7] = molecular target: MurNAc(b1-4)GlcNAc
# Summary of the method: as §1
# [8] = molecular target: Neu5Ac(a2-3)Gal
# Summary of the method: as §1
# [9] = molecular target: Neu5Ac(a2-3)Gal(b1-3)GalNAc
# Summary of the method: as §1
# [10] = molecular target: Neu5Ac(a2-3)Gal(b1-3)GalNAc(b1-3)Gal(a1-4)Gal(b1-4)Glc
# Summary of the method: as §1
# [11] = molecular target: Neu5Ac(a2-3)Gal(b1-3)GalNAc(b1-4)[Neu5Ac(a2-3)]Gal(b1-4)Glc
# Summary of the method: as §1
# [12] = molecular target: Neu5Ac(a2-3)Gal(b1-3)GalNAc(b1-4)[Neu5Ac(a2-8)Neu5Ac(a2-3)]Gal(b1-4)Glc
# Summary of the method: as §1
# [13] = molecular target: Neu5Ac(a2-3)Gal(b1-3)GalNAc6S
# Summary of the method: as §1
# [14] = molecular target: Neu5Ac(a2-3)Gal(b1-3)GlcNAc
# Summary of the method: as §1
# [15] = molecular target: Neu5Ac(a2-3)Gal(b1-3)GlcNAc(b1-2)Man
# Summary of the method: as §1
# [16] = molecular target: Neu5Ac(a2-3)Gal(b1-3)GlcNAc(b1-2)Man(a1-3)[GlcNAc(b1-4)][Neu5Ac(a2-3)Gal(b1-3)GlcNAc(b1-2)Man(a1-6)]Man(b1-4)GlcNAc(b1-4)GlcNAc
# Summary of the method: as §1
# [17] = molecular target: Neu5Ac(a2-3)Gal(b1-3)GlcNAc(b1-2)Man(a1-3)[Neu5Ac(a2-3)Gal(b1-3)GlcNAc(b1-2)Man(a1-6)]Man(b1-4)GlcNAc(b1-4)GlcNAc
# Summary of the method: as §1
# [18] = molecular target: Neu5Ac(a2-3)Gal(b1-3)GlcNAc(b1-3)Gal(b1-3)GlcNAc
# Summary of the method: as §1
# [19] = molecular target: Neu5Ac(a2-3)Gal(b1-3)GlcNAc(b1-3)Gal(b1-4)GlcNAc
# Summary of the method: as §1
# [20] = molecular target: Neu5Ac(a2-3)Gal(b1-3)GlcNAc(b1-3)GalNAc
# Summary of the method: as §1
# [21] = molecular target: Neu5Ac(a2-3)Gal(b1-3)GlcNAc(b1-4)Gal(b1-4)Glc
# Summary of the method: as §1
# [22] = molecular target: Neu5Ac(a2-3)Gal(b1-3)GlcNAc(b1-6)GalNAc
# Summary of the method: as §1
# [23] = molecular target: Neu5Ac(a2-3)Gal(b1-3)GlcNAc6S
# Summary of the method: as §1
# [24] = molecular target: Neu5Ac(a2-3)Gal(b1-3)[Fuc(a1-4)]GlcNAc
# Summary of the method: as §1
# [25] = molecular target: Neu5Ac(a2-3)Gal(b1-3)[Fuc(a1-4)]GlcNAc(b1-3)Gal(b1-3)[Fuc(a1-4)]GlcNAc
# Summary of the method: as §1
# [26] = molecular target: Neu5Ac(a2-3)Gal(b1-3)[Fuc(a1-4)]GlcNAc(b1-3)Gal(b1-4)[Fuc(a1-3)]GlcNAc
# Summary of the method: as §1
# [27] = molecular target: Neu5Ac(a2-3)Gal(b1-3)[GlcNAc(b1-6)]GalNAc
# Summary of the method: as §1
# [28] = molecular target: Neu5Ac(a2-3)Gal(b1-3)[Neu5Ac(a2-6)]GalNAc
# Summary of the method: as §1
# [29] = molecular target: Neu5Ac(a2-3)Gal(b1-3)[Neu5Ac(a2-6)]GlcNAc(b1-3)[Fuc(a1-3)[Gal(b1-4)]GlcNAc(b1-6)]Gal(b1-4)Glc
# Summary of the method: as §1
# [30] = molecular target: Neu5Ac(a2-3)Gal(b1-3)]Neu5Ac(a2-3)Gal(b1-4)]GlcNAc
# Summary of the method: as §1
# [31] = molecular target: Neu5Ac(a2-3)Gal(b1-4)Glc
# Summary of the method: as §1
# [32] = molecular target: Neu5Ac(a2-3)Gal(b1-4)GlcNAc
# Summary of the method: as §1
# [33] = molecular target: Neu5Ac(a2-3)Gal(b1-4)GlcNAc(b1-2)Man
# Summary of the method: as §1
# [34] = molecular target: Neu5Ac(a2-3)Gal(b1-4)GlcNAc(b1-2)Man(a1-3)[GlcNAc(b1-4)][Neu5Ac(a2-3)Gal(b1-4)GlcNAc(b1-2)Man(a1-6)]Man(b1-4)GlcNAc(b1-4)GlcNAc
# Summary of the method: as §1
# [35] = molecular target: Neu5Ac(a2-3)Gal(b1-4)GlcNAc(b1-2)Man(a1-3)[Neu5Ac(a2-3)Gal(b1-4)GlcNAc(b1-2)Man(a1-6)]Man(b1-4)GlcNAc(b1-4)GlcNAc
# Summary of the method: as §1
# [36] = molecular target: Neu5Ac(a2-3)Gal(b1-4)GlcNAc(b1-2)Man(a1-3)[Neu5Ac(a2-3)Gal(b1-4)GlcNAc(b1-2)Man(a1-6)]Man(b1-4)GlcNAc(b1-4)[Fuc(a1-6)]GlcNAc
# Summary of the method: as §1
# [37] = molecular target: Neu5Ac(a2-3)Gal(b1-4)GlcNAc(b1-2)Man(a1-3)[Neu5Ac(a2-6)Gal(b1-4)GlcNAc(b1-2)Man(a1-6)]Man(b1-4)GlcNAc(b1-4)GlcNAc
# Summary of the method: as §1
# [38] = molecular target: Neu5Ac(a2-3)Gal(b1-4)GlcNAc(b1-2)[Neu5Ac(a2-3)Gal(b1-4)GlcNAc(b1-4)]Man(a1-3)[GlcNAc(b1-4)][Neu5Ac(a2-3)Gal(b1-4)GlcNAc(b1-2)[Neu5Ac(a2-3)Gal(b1-4)GlcNAc(b1-6)]Man(a1-6)]Man(b1-4)GlcNAc(b1-4)GlcNAc
# Summary of the method: as §1
binder,measurement,setting,value
B1,glycan array binding signal (z-score),[1],-0.42
same,glycan array binding signal (z-score),[2],0.26
same,glycan array binding signal (z-score),[3],-0.716
same,glycan array binding signal (z-score),[4],0.777
same,glycan array binding signal (z-score),[5],1.52
same,glycan array binding signal (z-score),[6],-0.573
same,glycan array binding signal (z-score),[7],0.296
same,glycan array binding signal (z-score),[8],-0.216
same,glycan array binding signal (z-score),[9],-0.241
same,glycan array binding signal (z-score),[10],0.392
same,glycan array binding signal (z-score),[11],0.058
same,glycan array binding signal (z-score),[12],-0.697
same,glycan array binding signal (z-score),[13],-0.286
same,glycan array binding signal (z-score),[14],-0.306
same,glycan array binding signal (z-score),[15],1.13
same,glycan array binding signal (z-score),[16],0.566
same,glycan array binding signal (z-score),[17],-1.84
same,glycan array binding signal (z-score),[18],-0.995
same,glycan array binding signal (z-score),[19],-0.817
same,glycan array binding signal (z-score),[20],0.129
same,glycan array binding signal (z-score),[21],-1.26
same,glycan array binding signal (z-score),[22],0.168
same,glycan array binding signal (z-score),[23],-0.748
same,glycan array binding signal (z-score),[24],-0.362
same,glycan array binding signal (z-score),[25],0.538
same,glycan array binding signal (z-score),[26],-0.103
same,glycan array binding signal (z-score),[27],-0.324
same,glycan array binding signal (z-score),[28],0.09
same,glycan array binding signal (z-score),[29],0.593
same,glycan array binding signal (z-score),[30],0.559
same,glycan array binding signal (z-score),[31],-0.296
same,glycan array binding signal (z-score),[32],-0.216
same,glycan array binding signal (z-score),[33],-0.52
same,glycan array binding signal (z-score),[34],-1.27
same,glycan array binding signal (z-score),[35],1.04
same,glycan array binding signal (z-score),[36],1.04
same,glycan array binding signal (z-score),[37],1.25
same,glycan array binding signal (z-score),[38],-0.639

# 2 successive records out of the list so far, quoted:
binder,measurement,setting,value
B1,glycan array binding signal (z-score),[29],0.593
same,glycan array binding signal (z-score),[30],0.559
